{"sequences": {"note": "Amino acid sequences for entries named in this document (tags omitted). Residues count along the entry.", "UniProt Q10589, residues 1-161": "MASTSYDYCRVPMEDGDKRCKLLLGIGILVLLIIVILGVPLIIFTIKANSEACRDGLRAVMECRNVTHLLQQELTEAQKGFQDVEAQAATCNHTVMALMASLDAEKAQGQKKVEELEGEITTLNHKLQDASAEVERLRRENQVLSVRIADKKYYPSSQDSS"}, "source": "paper PMC4161388", "binders": {"B1": {"name": "N-terminally HA-tagged human RICH2 (protein, UniProt Q17R89 1-818)", "chain": "MKKQFNRMRQLANQTVGRAEKTEVLSEDLLQVEKRLELVKQVSHSTHKKLTACLQGQQGAEADKRSKKLPLTTLAQCLMEGSAILGDDTLLGKMLKLCGETEDKLAQELIHFELQVERDVIEPLFLLAEVEIPNIQKQRKHLAKLVLDMDSSRTRWQQTSKSSGLSSSLQPAGAKADALREEMEEAANRVEICRDQLSADMYSFVAKEIDYANYFQTLIEVQAEYHRKSLTLLQAVLPQIKAQQEAWVEKPSFGKPLEEHLTISGREIAFPIEACVTMLLECGMQEEGLFRVAPSASKLKKLKAALDCCVVDVQEYSADPHAIAGALKSYLRELPEPLMTFELYDEWIQASNVQEQDKKLQALWNACEKLPKANHNNIRYLIKFLSKLSEYQDVNKMTPSNMAIVLGPNLLWPQAEGNITEMMTTVSLQIVGIIEPIIQHADWFFPGEIEFNITGNYGSPVHVNHNANYSSMPSPDMDPADRRQPEQARRPLSVATDNMMLEFYKKDGLRKIQSMGVRVMDTNWVARRGSSAGRKVSCAPPSMQPPAPPAELAAPLPSPLPEQPLDSPAAPALSPSGLGLQPGPERTSTTKSKELSPGSAQKGSPGSSQGTACAGTQPGAQPGAQPGASPSPSQPPADQSPHTLRKVSKKLAPIPPKVPFGQPGAMADQSAGQPSPVSLSPTPPSTPSPYGLSYPQGYSLASGQLSPAAAPPLASPSVFTSTLSKSRPTPKPRQRPTLPPPQPPTVNLSASSPQSTEAPMLDGMSPGESMSTDLVHFDIPSIHIELGSTLRLSPLEHMRRHSVTDKRDSEEESESTAL"}}, "target": "human tetherin, wild type (human) (UniProt Q10589)", "test": "co-IP; 293 cells cotransfected with N-terminally HA-tagged human RICH2 and tetherin; IP with anti-tetherin antibody; blots for HA and tetherin", "note": "No constants are given. Whether binding was seen depends on the method and setting. Binding seen in cells or lysates may run through a third protein. Some entries that bind do so weakly or less than the wild type. Sequences can lack the tags named with a protein."}
{"binder": "B1", "values": [{"measurement": "binding", "value": "binds"}]}
